From article PMC7181738
Results are given in words; binding and its absence hold for the method and conditions named. In cells and extracts the contact can be indirect.

Sequences of proteins named here, by UniProt entry; tags and fusion partners are left off. Residues count along the entry.
UniProt Q15843, residues 1-76: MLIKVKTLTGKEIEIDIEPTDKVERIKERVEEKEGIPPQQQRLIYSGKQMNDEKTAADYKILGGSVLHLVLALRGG

Target: neural precursor cell-expressed, developmentally downregulated 8 (human (endogenous in HepG2)) (UniProt Q15843)
Test: co-IP; endogenous proteins; HepG2 cells treated with OA (500 μM) for 24 h; lysate (1.5 mg) with anti-NEDD8 (10 μg) at 4 °C overnight, Protein A/G Sepharose beads; Western blotting

binding: no binding
B1: LXRα (protein, UniProt Q13133 1-447)
chain: MSLWLGAPVPDIPPDSAVELWKPGAQDASSQAQGGSSCILREEARMPHSAGGTAGVGLEAAEPTALLTRAEPPSEPTEIRPQKRKKGPAPKMLGNELCSVCGDKASGFHYNVLSCEGCKGFFRRSVIKGAHYICHSGGHCPMDTYMRRKCQECRLRKCRQAGMREECVLSEEQIRLKKLKRQEEEQAHATSLPPRASSPPQILPQLSPEQLGMIEKLVAAQQQCNRRSFSDRLRVTPWPMAPDPHSREARQQRFAHFTELAIVSVQEIVDFAKQLPGFLQLSREDQIALLKTSAIEVMLLETSRRYNPGSESITFLKDFSYNREDFAKAGLQVEFINPIFEFSRAMNELQLNDAEFALLIAISIFSADRPNVQDQLQVERLQHTYVEALHAYVSIHHPHDRLMFPRMLMKLVSLRTLSSVHSEQVFALRLQDKKLPPLLSEIWDVHE
